# Percent effect of library compounds

Protein sequences, listed by entry. Tags and fused reporters are not part of them. Residues count along the entry.
UniProt P9WFT3, whole entry: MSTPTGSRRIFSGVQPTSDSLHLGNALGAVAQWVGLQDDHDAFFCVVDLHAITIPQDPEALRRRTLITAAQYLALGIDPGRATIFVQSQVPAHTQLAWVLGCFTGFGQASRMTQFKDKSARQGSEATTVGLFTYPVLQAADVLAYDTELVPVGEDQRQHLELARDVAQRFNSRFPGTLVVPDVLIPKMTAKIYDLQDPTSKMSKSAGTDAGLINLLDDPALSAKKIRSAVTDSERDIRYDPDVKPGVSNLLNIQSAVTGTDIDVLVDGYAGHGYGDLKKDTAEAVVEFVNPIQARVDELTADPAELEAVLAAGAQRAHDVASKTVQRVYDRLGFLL
UniProt P9WPC5, whole entry: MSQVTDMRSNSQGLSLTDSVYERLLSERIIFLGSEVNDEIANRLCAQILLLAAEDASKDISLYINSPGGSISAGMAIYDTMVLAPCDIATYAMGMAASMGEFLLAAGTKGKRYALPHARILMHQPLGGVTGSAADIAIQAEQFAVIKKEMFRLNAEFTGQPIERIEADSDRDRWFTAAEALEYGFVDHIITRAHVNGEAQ
UniProt P9WPC3, whole entry partner: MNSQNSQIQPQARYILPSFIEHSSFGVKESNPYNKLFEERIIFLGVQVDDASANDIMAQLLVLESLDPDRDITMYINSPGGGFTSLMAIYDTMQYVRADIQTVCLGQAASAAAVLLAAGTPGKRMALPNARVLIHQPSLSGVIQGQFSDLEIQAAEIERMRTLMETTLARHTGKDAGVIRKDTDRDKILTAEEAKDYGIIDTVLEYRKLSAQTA
UniProt Q8IDJ8, 1-583: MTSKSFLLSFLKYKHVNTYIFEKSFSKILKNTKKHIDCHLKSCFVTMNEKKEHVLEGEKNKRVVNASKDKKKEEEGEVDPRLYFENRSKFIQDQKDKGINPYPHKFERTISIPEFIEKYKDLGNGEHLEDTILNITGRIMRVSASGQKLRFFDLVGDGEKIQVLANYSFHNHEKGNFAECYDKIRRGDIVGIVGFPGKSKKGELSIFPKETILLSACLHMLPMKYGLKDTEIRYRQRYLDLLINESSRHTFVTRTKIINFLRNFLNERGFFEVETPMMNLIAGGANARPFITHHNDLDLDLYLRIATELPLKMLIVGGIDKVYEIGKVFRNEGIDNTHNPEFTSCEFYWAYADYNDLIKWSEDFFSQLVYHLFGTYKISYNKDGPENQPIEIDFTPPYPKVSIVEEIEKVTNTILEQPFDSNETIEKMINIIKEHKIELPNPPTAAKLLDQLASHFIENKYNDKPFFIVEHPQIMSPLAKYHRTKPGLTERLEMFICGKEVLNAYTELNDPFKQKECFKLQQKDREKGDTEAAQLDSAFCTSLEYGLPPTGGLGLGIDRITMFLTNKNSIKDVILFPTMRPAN
UniProt P9WNZ1, whole entry: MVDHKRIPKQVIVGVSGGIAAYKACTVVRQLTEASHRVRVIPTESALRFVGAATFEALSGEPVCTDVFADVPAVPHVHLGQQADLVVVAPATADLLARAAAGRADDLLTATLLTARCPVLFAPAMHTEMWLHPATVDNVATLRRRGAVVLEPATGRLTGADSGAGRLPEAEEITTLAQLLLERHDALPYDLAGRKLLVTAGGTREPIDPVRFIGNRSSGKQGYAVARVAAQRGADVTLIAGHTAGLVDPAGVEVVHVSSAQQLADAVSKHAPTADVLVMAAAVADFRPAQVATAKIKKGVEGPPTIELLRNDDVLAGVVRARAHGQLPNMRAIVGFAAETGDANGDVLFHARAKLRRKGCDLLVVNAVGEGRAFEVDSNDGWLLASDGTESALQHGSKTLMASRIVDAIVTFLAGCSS

The filed quantity is “Percent Effect” (%). The record does not define 0% and 100%; most values in the screen are far below 50% and negative numbers occur (in some assays of this library far below -100). Compounds were drawn at random from those tested, without regard to their results.

MtTrpRS: 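Enzyme assay of tryptophanyl-tRNA synthetase; the read-out is not stated. Target: Tryptophan-tRNA ligase, Mycobacterium tuberculosis (UniProt P9WFT3). Concentration: 10 µM. Direction is not recorded; retested compounds ran higher, which suggests that high means inhibition. Size under these conditions: about 65,000 compounds, about 64 of them at 50% or above in at least one test.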
ClpP1P2: 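ClpP1P2, Mycobacterium tuberculosis (UniProt P9WPC5 and UniProt P9WPC3). Protease assay of ClpP1P2, read by the AMC dye that it sets free. Tested at 50 µM. Direction is inferred from only a few compounds that gave an IC50; most scored high, so higher reads as stronger inhibition. Most other retested compounds had strongly negative values. Of about 69,000 compounds tested this way, about 10 (0.015%) reached 50% or more in at least one test.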
Leishmania in macrophages: 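Cell assay of Leishmania donovani living inside macrophages; the read-out is not stated. Tested at 30 µM. The record gives no direction; compounds that gave an IC50 in retests scored well above the rest, so higher reads as stronger inhibition. Of about 69,000 compounds tested this way, about 1,000 (1.5%) reached 50% or more in at least one test.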
PfKRS1: 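Lysine-tRNA ligase, Plasmodium falciparum 3D7 (UniProt Q8IDJ8). Enzyme assay of the cytosolic lysyl-tRNA synthetase in 384-well plates, read by luminescence. Concentration: 30 µM. Direction is inferred from only a few compounds that gave an IC50; most scored high, so higher reads as stronger inhibition. Size under these conditions: about 69,000 compounds, about 49 of them at 50% or above in at least one test.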
CoaBC: 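Enzyme assay of CoaBC with a phosphate dye (Biomol Green) read at 650 nm. Target: Coenzyme A biosynthesis protein CoaBC, Mycobacterium tuberculosis (UniProt P9WNZ1). Tested at 30 µM. Higher reads as stronger inhibition, judged from the few compounds that gave an IC50. Most strong results did not repeat in a second test. Of about 67,000 compounds tested this way, about 40 (0.06%) reached 50% or more in at least one test.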

{"structure": "Cc1ccc(CNCc2ccc(N3CCC(CO)CC3)nc2)c(C)c1.Cl", "Leishmania in macrophages": 12.19}
{"structure": "CCN1CC[C@@]2(C(=O)N3CCOCC3)CCN(C(=O)CC(C)C)CC[C@@H]12", "MtTrpRS": -5.901, "ClpP1P2": -11.51, "PfKRS1": -1.514, "CoaBC": 1.781}
{"structure": "CC1CN(C(=O)c2ccc(C(N)=O)cc2)c2ccc(F)cc2O1", "stereo": "configuration not stated", "MtTrpRS": 2.283, "ClpP1P2": -1.337, "Leishmania in macrophages": 6.371, "PfKRS1": 4.276, "CoaBC": -4.087}
{"structure": "O=C(O)C(F)(F)F.[H][C@@]12C[C@H](C(=O)Nc3cccnc3)[C@@]([H])(CN(C(=O)NC)C1)O2", "Leishmania in macrophages": 20.11}
{"structure": "NC(=O)N1CCC2(CC1)CN(Cc1cccnc1)C(=O)CO2", "MtTrpRS": 3.893, "ClpP1P2": 7.109, "PfKRS1": 0.2642, "CoaBC": -2.177}
{"structure": "CCn1cnnc1CNC(=O)N1CCN(c2cccc(C)c2)CC1", "MtTrpRS": -6.524, "ClpP1P2": 9.657, "Leishmania in macrophages": 12.43, "PfKRS1": 0.5591, "CoaBC": 2.194}
{"structure": "CCOCC1CN(Cc2cnn(C)c2)Cc2cnn(C)c21", "stereo": "configuration not stated", "MtTrpRS": 3.139, "ClpP1P2": -1.801, "Leishmania in macrophages": 14.22, "PfKRS1": 2.064, "CoaBC": -6.723}
{"structure": "Cc1cc(C)c2c(N3CCC(C(=O)N4CCCC4)CC3)ncnc2n1", "MtTrpRS": -0.4405, "ClpP1P2": -12.33, "Leishmania in macrophages": 32.87, "PfKRS1": 2.226, "CoaBC": -1.157}
{"structure": "O=C1N(CCc2ccccc2)CCCC1(O)CNCc1ccc(F)cc1", "stereo": "configuration not stated", "MtTrpRS": 15.57, "ClpP1P2": -9.092, "Leishmania in macrophages": 14.91, "PfKRS1": 3.17, "CoaBC": -41.63}
{"structure": "CN1CCN(c2ccc(CO)cc2F)CC1", "MtTrpRS": -4.741, "ClpP1P2": 5.981, "Leishmania in macrophages": 19.27, "PfKRS1": 5.275, "CoaBC": 8.8}
{"structure": "O=C(c1ncoc1-c1ccco1)N1CCCN(c2ncccn2)CC1", "MtTrpRS": -5.69, "ClpP1P2": -2.806, "Leishmania in macrophages": 16.28, "PfKRS1": 1.63, "CoaBC": -6.452}
{"structure": "CC(C)CCN1C[C@H]2C[C@H](C(=O)NCc3ccccc3)[C@@H](C1)O2", "MtTrpRS": -3.836, "ClpP1P2": 2.277, "PfKRS1": 4.606, "CoaBC": -3.782}
{"structure": "Cc1noc(C)c1CS(=O)(=O)CC(=O)N1c2ccccc2CC1C", "stereo": "configuration not stated", "MtTrpRS": -4.161, "ClpP1P2": 3.225, "Leishmania in macrophages": 3.278, "PfKRS1": 3.887, "CoaBC": 9.711}
{"structure": "O=C(c1ccc[nH]1)N1CC2(CCN(c3ncccn3)C2)C1", "MtTrpRS": -3.315, "ClpP1P2": 1.973, "Leishmania in macrophages": 10.65, "PfKRS1": 0.5036, "CoaBC": -8.333}
{"structure": "Cc1nc[nH]c1CN1CCOC(CCNC(=O)c2ccsc2)C1", "stereo": "configuration not stated", "MtTrpRS": 2.351, "ClpP1P2": -2.137, "Leishmania in macrophages": 11.99, "PfKRS1": 5.639, "CoaBC": -3.24}
{"structure": "CCOCCNC1(c2ccc(Cl)cc2)CCOCC1", "MtTrpRS": 0.1487, "ClpP1P2": 5.872, "Leishmania in macrophages": -4.02, "PfKRS1": -1.233, "CoaBC": 10}
{"structure": "O=C(Cn1cc(I)cn1)N1CCOCC1", "MtTrpRS": 0.7916, "ClpP1P2": 3.745, "Leishmania in macrophages": 14.24, "PfKRS1": 4.572, "CoaBC": 0.8584}
{"structure": "OC1CCCN(Cc2c(-c3ccco3)[nH]c3ncccc23)C1", "stereo": "configuration not stated", "MtTrpRS": 2.759, "ClpP1P2": 9.266, "Leishmania in macrophages": 22.93, "PfKRS1": 1.539, "CoaBC": 5.833}
{"structure": "O=C(O)C(F)(F)F.O=C(O)C(F)(F)F.[H][C@@]12CCCO[C@]1([H])[C@H](N(C)Cc1cccnc1)CN2C(=O)c1ccoc1", "Leishmania in macrophages": -5.312}
{"structure": "CCNc1cc2c(nn1)CCN(C(=O)c1ccnc(N(C)C)c1)C2", "MtTrpRS": 0.1572, "ClpP1P2": 3.154, "Leishmania in macrophages": 36.21, "PfKRS1": 2.995, "CoaBC": 4.255}
{"structure": "CN1C(=O)C[C@@H]2[C@@H]1CCN2S(=O)(=O)Cc1ccccc1", "MtTrpRS": 4.03, "ClpP1P2": -11.33, "PfKRS1": 1.795, "CoaBC": 0.6452}

2 of the entries, repeated:

{"structure": "CC(C)CCN1C[C@H]2C[C@H](C(=O)NCc3ccccc3)[C@@H](C1)O2", "MtTrpRS": -3.836, "ClpP1P2": 2.277, "PfKRS1": 4.606, "CoaBC": -3.782}
{"structure": "CN1CCN(c2ccc(CO)cc2F)CC1", "MtTrpRS": -4.741, "ClpP1P2": 5.981, "Leishmania in macrophages": 19.27, "PfKRS1": 5.275, "CoaBC": 8.8}

The values are deposited in ChEMBL (CHEMBL3988442, “University of Dundee, Small-Polar-MMV Screening Library” (2021)).